{"source": "the MegaScale stability set (Tsuboyama et al. 2023)", "parents": {"B1": {"name": "6NMW (parent)", "chain": "QGDIVVALYPYDGIHPDDLSFKKGEKMKVLEEHGEWWKAKSLLTKKEGFIPSNYVAKLN"}}}
{"variants_of": "B1", "test": "folding stability dG (cDNA display proteolysis); higher = more stable", "conditions": "PBS, room temperature", "units": {"folding stability dG": "kcal/mol"}}
{"variant": "P16E", "folding stability dG": 3.23}
{"variant": "K45G", "folding stability dG": 4.96}
{"variant": "K26R", "folding stability dG": 4.02}
{"variant": "L43T", "folding stability dG": 3.4}
{"variant": "E35D", "folding stability dG": 3.86}
{"variant": "I14R", "folding stability dG": 3.73}
{"variant": "G13A", "folding stability dG": 4.25}
{"variant": "K38L", "folding stability dG": 4.46}
{"variant": "K46Q", "folding stability dG": 3.35}
{"variant": "F49Y", "folding stability dG": 3.74}
{"variant": "E32S", "folding stability dG": 3.82}
{"variant": "M27L", "folding stability dG": 3.71}
{"variant": "E31S", "folding stability dG": 3.76}
{"variant": "E31N", "folding stability dG": 2.42}
{"variant": "E47T", "folding stability dG": 4.04}
{"variant": "K28Q", "folding stability dG": 4.41}
{"variant": "K40H", "folding stability dG": 2.79}
{"variant": "V29I", "folding stability dG": 4.5}
{"variant": "H33E", "folding stability dG": 2.44}
{"variant": "H33S", "folding stability dG": 3.18}
{"variant": "H15T", "folding stability dG": 2.9}
{"variant": "D12E", "folding stability dG": 4.32}
